No constants are given. Whether binding was seen depends on the method and setting. In cells and extracts the contact can be indirect. Some binding calls cover weakened binding; strength is not graded here.

Protein sequences, listed by entry. Tags and fused reporters are not part of them.
UniProt Q4VSI4: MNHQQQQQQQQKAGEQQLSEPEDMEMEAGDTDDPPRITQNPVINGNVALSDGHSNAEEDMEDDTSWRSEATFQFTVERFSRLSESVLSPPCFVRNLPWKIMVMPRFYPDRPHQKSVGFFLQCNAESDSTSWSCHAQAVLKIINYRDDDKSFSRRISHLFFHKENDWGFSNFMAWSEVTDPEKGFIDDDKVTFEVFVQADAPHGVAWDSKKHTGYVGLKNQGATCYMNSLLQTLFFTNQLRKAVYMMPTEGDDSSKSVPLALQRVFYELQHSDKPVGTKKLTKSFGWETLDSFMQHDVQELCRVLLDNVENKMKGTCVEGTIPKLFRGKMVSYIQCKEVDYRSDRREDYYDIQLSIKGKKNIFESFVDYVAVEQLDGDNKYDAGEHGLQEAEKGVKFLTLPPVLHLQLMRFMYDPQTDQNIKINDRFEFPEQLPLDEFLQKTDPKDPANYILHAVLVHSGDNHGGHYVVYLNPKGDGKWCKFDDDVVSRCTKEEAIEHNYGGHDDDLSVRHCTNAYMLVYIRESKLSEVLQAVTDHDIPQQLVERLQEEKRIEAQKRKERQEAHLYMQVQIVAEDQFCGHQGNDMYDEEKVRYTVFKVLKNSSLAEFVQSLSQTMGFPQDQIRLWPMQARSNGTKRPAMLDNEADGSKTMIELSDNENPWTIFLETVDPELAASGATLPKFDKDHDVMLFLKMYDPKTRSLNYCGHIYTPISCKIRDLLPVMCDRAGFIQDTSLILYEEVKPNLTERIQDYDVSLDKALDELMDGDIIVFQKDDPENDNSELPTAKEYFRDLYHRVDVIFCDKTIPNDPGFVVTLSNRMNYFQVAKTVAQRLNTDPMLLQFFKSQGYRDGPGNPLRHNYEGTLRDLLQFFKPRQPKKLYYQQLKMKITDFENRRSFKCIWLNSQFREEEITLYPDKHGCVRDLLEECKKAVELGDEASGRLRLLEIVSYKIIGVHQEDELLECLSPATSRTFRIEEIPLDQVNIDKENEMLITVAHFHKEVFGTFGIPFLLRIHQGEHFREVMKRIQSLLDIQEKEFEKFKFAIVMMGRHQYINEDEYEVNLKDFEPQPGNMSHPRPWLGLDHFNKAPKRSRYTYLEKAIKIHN
UniProt P10361: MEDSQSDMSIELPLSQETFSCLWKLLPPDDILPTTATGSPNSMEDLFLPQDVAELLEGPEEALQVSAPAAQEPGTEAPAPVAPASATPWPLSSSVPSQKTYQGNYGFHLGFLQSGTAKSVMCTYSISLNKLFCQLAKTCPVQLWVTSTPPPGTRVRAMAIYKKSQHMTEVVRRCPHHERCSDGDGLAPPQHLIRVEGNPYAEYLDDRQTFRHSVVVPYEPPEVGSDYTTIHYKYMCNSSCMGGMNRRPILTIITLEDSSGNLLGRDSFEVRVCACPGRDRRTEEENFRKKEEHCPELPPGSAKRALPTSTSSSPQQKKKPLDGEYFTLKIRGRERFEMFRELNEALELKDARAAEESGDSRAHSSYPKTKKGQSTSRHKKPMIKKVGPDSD

This test addresses ubiquitin-specific protease 7 (rat (endogenous in H9C2)) (UniProt Q4VSI4). The test can be described thus: co-IP; anti-USP7 added to H9C2 cell protein extracts, protein A/G magnetic beads overnight at 4°C, SDS-PAGE and immunoblotting. (In western blotting, separated proteins are transferred to a membrane and probed.)

With p53 (from UniProt P10361 1-391), the binding entry was “binds”.

The record behind these values is PMC8807507.
